Experimental data: PubChem BioAssay AID2685 (National Center for Advancing Translational Sciences (NCATS), 2010)
About 2,100 (0.66%) of roughly 320,000 compounds were called active. The inconclusive results got no clear call from the source; some entries with a clear call stand among them for comparison. Calls come from the whole dose curve; as a rule, active = well fitted inhibition curve with a large enough effect in the signal ratio, with a control signal flat (not every such curve was filed as active); inconclusive = small, poorly fitted or top-dose-only effect, or effect the other way, or a change in a side signal; inactive = flat fitted curve, though single readings scatter; the % refers to the signal ratio. Potencies beside an inconclusive call are fits to weak or partial responses and may not hold up.

assay: qHTS Assay for Lipid Storage Modulators in Drosophila S3 Cells; conditions: BODIPY lipid droplet fluorescence, 18-24 h, cells fed with added oleic acid; lipid storage change, negative = inhibition: at 46.1 µM (top of the series) unless noted
Procedure, shortened: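 Drosophila S3 cells loaded with oleic acid (400 uM, as added) and compounds at several concentrations; lipid droplets imaged by 488-nm laser-scanning cytometry, 500–530 nm intensity and object ratio to cell channel. Percent activity normalized to 20 uM Triacsin C.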
% is set by controls: 0 for no effect and ±100 for the full control effect; potency is the fitted concentration of half-maximal effect.

| Compound | lipid storage change, negative = inhibition | Potency |
| --- | --- | --- |
| CC(C)c1ccc(CN2CCSCC2)cc1 | inconclusive: 4.96% | – |
| N#CC1=C(N)N(c2ccccc2)C2=C(C(=O)CCC2)C1c1ccsc1 (configuration not stated) | – | inconclusive: 0.92 µM [activator, partial curve] |
| Cc1ccc(N=Nc2ccc(C)cc2NC(=O)Nc2ccccc2F)cc1 | inactive: -11.3% | – |
| O=[N+]([O-])c1ccc2nc(C3CCCCC3)[nH]c2c1 | inconclusive: -87.1% | – |
| CN(C)C(CNc1ncccn1)c1ccccc1 (configuration not stated) | inconclusive: 7.8% | – |
| CSCCC(NS(=O)(=O)c1ccc(Cl)cc1)C(=O)OCC(=O)N(C(C)C)C(C)C (configuration not stated) | inconclusive: 31.9% | – |
| COc1ccc(NC(=O)CSc2nccn2Cc2ccco2)cc1 | – | inconclusive: 6.51 µM [falling, partial curve, poor fit] |
| O=C(Nc1ccc(N2CCN(C(=O)c3ccco3)CC2)c(Cl)c1)c1cccnc1 | inconclusive: -14.5% | – |
| O=C1CCC([N+](=O)[O-])C(c2ccccc2C(F)(F)F)N1 (configuration not stated) | inconclusive: -12% | – |
| O=C(Nc1ccncc1)Nc1cccc(C(F)(F)F)c1 | inconclusive: 15.2% | – |
| O=C(O)CC(NC(=S)NCc1ccccc1)C(=O)O (configuration not stated) | – | inconclusive: 0.92 µM [falling, full curve, poor fit] |
| COc1cccc(NC(=S)NC(C)c2ccc(OC)c(OC)c2)c1 (configuration not stated) | inconclusive: -41.7% [cytotoxic] [at 0.00295 µM] | – |
| Cc1cc(=O)n2nc(N3CCC(C(=O)NCCc4ccc(Cl)cc4)CC3)sc2n1 | inconclusive: -20.9% | – |
| COc1ccc(CC(=O)OCC(=O)Nc2c(C)n(C)n(-c3ccccc3)c2=O)cc1OC | inconclusive: 4.39% | – |
| CCc1noc(C)c1C(=O)Nc1nc(-c2cccs2)cs1 | inconclusive: 32.4% | – |
| COc1ccc(NC(=O)CSc2nnc(-c3ccccc3Cl)n2Cc2ccco2)c(OC)c1 | – | inconclusive: 29.1 µM [falling, single point] |
| COc1ccc2c(c1)c1nc3ccccc3nc1n2Cc1ccc(OC)c(OC)c1 | inconclusive: -96.8% | – |
| CCCCc1nnc2c(N(C)S(=O)(=O)c3ccccc3)nc3ccccc3n12 | – | inconclusive: 0.092 µM [activator, full curve, poor fit] |
| O=c1[nH]c(C2CCN(S(=O)(=O)c3cccc(Cl)c3)CC2)nc2c1nnn2Cc1ccccc1 | inconclusive: -36.9% | – |
| CSc1nsc(SCC(=O)Nc2ccc(C(N)=O)cc2)n1 | – | active: 6.51 µM |
| CCOCCCNC(=O)c1cn(C)c(=O)c2cc(OC)c(OC)cc12 | inconclusive: 23.6% | – |
| CC(C)C(c1nnnn1Cc1ccccc1)N1CCN(Cc2ccco2)CC1 (configuration not stated) | – | inconclusive: 2.91 µM [activator, single point] |
| CCOc1ccc(CCNC(=O)CSCc2ccc(C)cc2)cc1OCC | – | inconclusive: 7.31 µM [falling, partial curve] |
| C/C(=N\NC(=O)C1COc2ccccc2O1)c1ccc(N2CCOCC2)cc1 (configuration not stated) | inconclusive: -0.379% | – |
| CCS(=O)(=O)c1nc(S(=O)(=O)c2ccc(Cl)cc2)c(NCCCN2CCOCC2)s1 | inconclusive: 19.7% | – |
| CCN(CC)S(=O)(=O)c1ccc(N2CCOCC2)c(NS(=O)(=O)c2ccc(C(C)C)cc2)c1 | inconclusive: 11.8% | – |

Pulled one by one from the entries so far:

| Compound | lipid storage change, negative = inhibition | Potency |
| --- | --- | --- |
| CCCCc1nnc2c(N(C)S(=O)(=O)c3ccccc3)nc3ccccc3n12 | – | inconclusive: 0.092 µM [activator, full curve, poor fit] |
| O=C1CCC([N+](=O)[O-])C(c2ccccc2C(F)(F)F)N1 (configuration not stated) | inconclusive: -12% | – |

Further structures.

| Compound | lipid storage change, negative = inhibition | Potency |
| --- | --- | --- |
| Cn1ccnc1Sc1ccc(C(N)=O)cc1[N+](=O)[O-] | inconclusive: 42.3% | – |
| FC(F)(F)c1cccc(Oc2cc(C(F)(F)F)nc(-c3ccccn3)n2)c1 | inconclusive: 14.2% | – |
| O=C(c1cccs1)N1CCCc2ccccc21 | inconclusive: 19.7% | – |
| CCOc1ccc(NC(=S)NN2C(C)CCCC2C)cc1 (configuration not stated) | inconclusive: -8.2% | – |
| Cc1cccc(C(=O)NC2CCN(CC(=O)N3CCOCC3)CC2)c1 | inconclusive: 43.4% | – |
| O=C(Nc1ccc(F)cc1)NC1(C(=O)NCc2ccco2)CCCCC1 | inconclusive: 0.0769% | – |
| CCSc1nc2c(cnn2-c2ccc(C)c(C)c2)c(=O)[nH]1 | inconclusive: 5.01% | – |
| CSc1nc(N(C)NC(=O)c2cccc(C)c2)c2ccccc2n1 | – | inconclusive: 2.91 µM [falling, partial curve] |
| O=C(O)/C=C/C(=O)c1ccc2c(c1)NC(=O)CO2 | inconclusive: -9.2% | – |
| COc1cc(NC(=O)C2CSC3(C)CCC(=O)N23)c(OC)cc1Cl (configuration not stated) | inconclusive | – |
| NS(=O)(=O)c1ccc(N/N=C/c2cn(-c3ccccc3)nc2-c2cccs2)c([N+](=O)[O-])c1 | inconclusive: -33.6% | – |
| O=C(c1cc(COc2ccccc2)on1)N1CCCC(OCc2cccnc2)C1 (configuration not stated) | – | active: 1.03 µM |
| COc1cccc(C(=O)N=c2sc3c(C)ccc(OC)c3n2C)c1 | inconclusive: 37.6% | – |
| CCN(CC)S(=O)(=O)c1cccc2cc(C(=O)O)c(O)cc12 | inconclusive: 0.736% | – |
| CC(=O)NC(C)C12CC3CC(CC(C(=O)O)(C3)C1)C2 (configuration not stated) | – | inconclusive: 0.651 µM [falling, full curve, poor fit] |
| O=C(COc1ccccc1Cl)Nc1ccc(NC(=O)c2ccco2)cc1 | inconclusive: -69.9% | – |
| CCOC(=O)C(=CNc1ccccc1N1CCOCC1)C(=O)OCC | inconclusive: 0.531% | – |
| CCOC(=O)C(C)Oc1cccc2c(=O)n(CC(=O)NCc3ccccc3)ccc12 (configuration not stated) | inconclusive: 42.1% | – |
| COc1ccc(S(=O)(=O)N2CCOCC2)cc1NC(=O)Cc1cccs1 | inconclusive: 36.8% | – |
| O=S(=O)(c1ccccc1)N(Cc1ccc(Cl)cc1)c1ccncc1 | inconclusive: 33% | – |
| CC1CCN(C(=O)CCc2ccc(S(=O)(=O)NC(C)C)cc2)CC1 | inconclusive: 91.7% | – |
| CC1CCC2(CC1)NC(=O)N(CC(=O)N1CCN(S(=O)(=O)c3ccccc3)CC1)C2=O (configuration not stated) | inconclusive: 10.2% | – |
| CNC(=O)Cn1c(=O)n(C)c2ccccc21 | – | inconclusive: 29.1 µM [falling, single point] |
| O=C1Nc2ccccc2C1=Nc1ccc(Br)cc1 | inconclusive: -36.3% | – |
| CCOC(=O)c1cc2c(ccn2C)n1CC(=O)N(C)C | inconclusive: 38.3% | – |
| COc1ccc(CCN2CCC(Nc3nc4ccccc4n3Cc3ccc(F)cc3)CC2)cc1 | – | inconclusive: 18.4 µM [cytotoxic, single point] |
